# Data taken from the supplement of paper PMC10849652.
# Protein sequences, listed by entry. Tags and fused reporters are not part of them. Lines headed by an entry give the natural chain unless they say otherwise; changes in a name come on top.
# UniProt O15155: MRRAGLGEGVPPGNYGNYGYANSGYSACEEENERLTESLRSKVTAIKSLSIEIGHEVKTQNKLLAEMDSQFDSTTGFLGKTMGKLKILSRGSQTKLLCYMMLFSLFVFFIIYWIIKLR
# UniProt Q8TDN6: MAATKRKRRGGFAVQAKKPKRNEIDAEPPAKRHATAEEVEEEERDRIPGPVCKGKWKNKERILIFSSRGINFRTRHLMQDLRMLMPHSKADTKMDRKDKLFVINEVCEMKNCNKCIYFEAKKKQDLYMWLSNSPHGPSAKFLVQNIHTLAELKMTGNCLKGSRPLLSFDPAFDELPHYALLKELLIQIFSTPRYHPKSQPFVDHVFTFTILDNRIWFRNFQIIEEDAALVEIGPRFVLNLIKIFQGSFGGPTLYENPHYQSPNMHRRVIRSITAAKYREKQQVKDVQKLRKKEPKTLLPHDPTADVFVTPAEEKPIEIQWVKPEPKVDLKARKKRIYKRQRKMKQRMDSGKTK
# UniProt Q86UU0: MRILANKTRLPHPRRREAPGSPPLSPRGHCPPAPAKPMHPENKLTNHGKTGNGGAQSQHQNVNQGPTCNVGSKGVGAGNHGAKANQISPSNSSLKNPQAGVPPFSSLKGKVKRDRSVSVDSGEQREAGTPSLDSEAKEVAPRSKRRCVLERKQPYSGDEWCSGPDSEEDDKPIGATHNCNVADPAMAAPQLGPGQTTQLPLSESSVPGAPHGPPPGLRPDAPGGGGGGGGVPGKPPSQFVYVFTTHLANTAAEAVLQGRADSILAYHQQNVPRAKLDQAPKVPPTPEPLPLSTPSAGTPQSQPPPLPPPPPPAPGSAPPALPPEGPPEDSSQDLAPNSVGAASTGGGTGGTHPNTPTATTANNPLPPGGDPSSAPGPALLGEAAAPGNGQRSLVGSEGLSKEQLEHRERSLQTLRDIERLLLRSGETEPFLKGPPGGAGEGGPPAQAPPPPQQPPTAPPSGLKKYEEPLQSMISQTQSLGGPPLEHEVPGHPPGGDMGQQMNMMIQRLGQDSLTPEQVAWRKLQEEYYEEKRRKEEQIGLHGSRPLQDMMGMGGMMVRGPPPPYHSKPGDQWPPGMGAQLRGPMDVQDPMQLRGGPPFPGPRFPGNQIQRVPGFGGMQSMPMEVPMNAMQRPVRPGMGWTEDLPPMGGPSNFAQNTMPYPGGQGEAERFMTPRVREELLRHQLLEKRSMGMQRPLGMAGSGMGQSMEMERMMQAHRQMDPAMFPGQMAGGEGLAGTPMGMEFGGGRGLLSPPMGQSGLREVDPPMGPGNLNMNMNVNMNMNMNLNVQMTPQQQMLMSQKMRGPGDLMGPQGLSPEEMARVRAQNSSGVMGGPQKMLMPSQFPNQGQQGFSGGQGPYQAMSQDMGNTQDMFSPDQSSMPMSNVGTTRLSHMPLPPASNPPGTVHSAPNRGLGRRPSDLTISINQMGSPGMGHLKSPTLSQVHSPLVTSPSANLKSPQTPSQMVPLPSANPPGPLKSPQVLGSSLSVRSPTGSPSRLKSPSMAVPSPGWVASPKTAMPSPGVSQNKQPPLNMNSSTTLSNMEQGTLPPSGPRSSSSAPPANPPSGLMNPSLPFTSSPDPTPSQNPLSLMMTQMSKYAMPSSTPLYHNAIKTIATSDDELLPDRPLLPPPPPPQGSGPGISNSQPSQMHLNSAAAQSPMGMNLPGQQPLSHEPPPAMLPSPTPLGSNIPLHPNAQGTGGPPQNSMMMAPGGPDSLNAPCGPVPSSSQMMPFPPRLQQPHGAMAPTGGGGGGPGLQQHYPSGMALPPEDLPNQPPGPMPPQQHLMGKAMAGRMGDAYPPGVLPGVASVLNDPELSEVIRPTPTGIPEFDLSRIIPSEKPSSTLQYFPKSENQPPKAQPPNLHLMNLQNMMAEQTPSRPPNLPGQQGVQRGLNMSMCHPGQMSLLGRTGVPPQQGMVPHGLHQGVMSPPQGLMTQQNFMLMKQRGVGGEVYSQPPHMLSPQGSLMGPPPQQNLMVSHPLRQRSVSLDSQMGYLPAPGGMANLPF
# UniProt Q14692: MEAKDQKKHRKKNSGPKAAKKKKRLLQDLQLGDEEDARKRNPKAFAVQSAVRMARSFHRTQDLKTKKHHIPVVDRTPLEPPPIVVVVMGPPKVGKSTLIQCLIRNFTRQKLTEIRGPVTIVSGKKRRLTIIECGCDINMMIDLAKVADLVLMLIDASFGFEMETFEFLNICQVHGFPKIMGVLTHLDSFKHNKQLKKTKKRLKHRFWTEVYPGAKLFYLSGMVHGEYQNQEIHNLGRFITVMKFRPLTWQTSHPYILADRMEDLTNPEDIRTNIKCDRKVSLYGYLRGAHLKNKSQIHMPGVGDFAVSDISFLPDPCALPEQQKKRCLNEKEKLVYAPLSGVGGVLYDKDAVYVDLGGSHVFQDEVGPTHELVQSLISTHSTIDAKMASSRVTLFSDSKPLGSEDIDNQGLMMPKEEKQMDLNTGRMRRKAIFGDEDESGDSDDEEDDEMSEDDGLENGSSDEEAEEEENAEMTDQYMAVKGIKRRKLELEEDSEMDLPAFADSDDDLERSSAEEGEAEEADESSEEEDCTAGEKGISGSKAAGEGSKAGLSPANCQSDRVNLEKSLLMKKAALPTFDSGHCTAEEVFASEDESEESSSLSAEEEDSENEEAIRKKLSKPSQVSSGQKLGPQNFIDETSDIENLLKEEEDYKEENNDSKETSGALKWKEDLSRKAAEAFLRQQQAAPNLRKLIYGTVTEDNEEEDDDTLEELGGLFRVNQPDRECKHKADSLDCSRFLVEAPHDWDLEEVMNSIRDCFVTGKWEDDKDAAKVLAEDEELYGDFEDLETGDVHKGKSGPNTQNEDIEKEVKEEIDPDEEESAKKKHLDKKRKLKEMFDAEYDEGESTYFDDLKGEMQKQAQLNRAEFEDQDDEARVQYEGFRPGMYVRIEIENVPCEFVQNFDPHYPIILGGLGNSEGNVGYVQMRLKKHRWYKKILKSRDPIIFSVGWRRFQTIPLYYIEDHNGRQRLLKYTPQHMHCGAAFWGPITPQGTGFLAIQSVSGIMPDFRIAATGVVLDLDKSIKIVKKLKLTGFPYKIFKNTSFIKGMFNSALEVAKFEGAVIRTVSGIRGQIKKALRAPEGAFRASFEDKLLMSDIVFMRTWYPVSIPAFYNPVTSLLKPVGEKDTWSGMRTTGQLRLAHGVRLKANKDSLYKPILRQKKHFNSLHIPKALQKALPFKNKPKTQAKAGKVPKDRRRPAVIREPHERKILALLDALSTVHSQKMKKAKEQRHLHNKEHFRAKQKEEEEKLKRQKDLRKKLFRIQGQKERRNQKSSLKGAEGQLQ
# UniProt Q5VW32: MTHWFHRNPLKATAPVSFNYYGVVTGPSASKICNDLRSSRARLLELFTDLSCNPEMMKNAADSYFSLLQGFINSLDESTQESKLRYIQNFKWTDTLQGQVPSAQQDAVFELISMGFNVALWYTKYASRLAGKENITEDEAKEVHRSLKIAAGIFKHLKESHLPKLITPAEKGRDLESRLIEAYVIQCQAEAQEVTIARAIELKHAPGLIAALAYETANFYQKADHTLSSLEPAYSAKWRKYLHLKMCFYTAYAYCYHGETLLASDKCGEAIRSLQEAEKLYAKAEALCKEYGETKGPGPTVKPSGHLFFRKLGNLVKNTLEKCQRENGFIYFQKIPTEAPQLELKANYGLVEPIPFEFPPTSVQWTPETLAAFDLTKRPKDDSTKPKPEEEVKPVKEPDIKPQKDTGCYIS
# UniProt O75934: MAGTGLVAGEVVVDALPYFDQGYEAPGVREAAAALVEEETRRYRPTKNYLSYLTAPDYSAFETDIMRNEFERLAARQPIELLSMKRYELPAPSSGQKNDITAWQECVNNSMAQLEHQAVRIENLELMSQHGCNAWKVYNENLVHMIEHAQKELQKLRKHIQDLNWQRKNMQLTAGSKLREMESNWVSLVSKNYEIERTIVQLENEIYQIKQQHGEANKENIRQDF
# UniProt O95415: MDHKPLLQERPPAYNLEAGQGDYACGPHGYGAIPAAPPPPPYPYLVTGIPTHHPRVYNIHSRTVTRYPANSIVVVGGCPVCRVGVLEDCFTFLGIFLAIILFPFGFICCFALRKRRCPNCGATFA
# UniProt P51572: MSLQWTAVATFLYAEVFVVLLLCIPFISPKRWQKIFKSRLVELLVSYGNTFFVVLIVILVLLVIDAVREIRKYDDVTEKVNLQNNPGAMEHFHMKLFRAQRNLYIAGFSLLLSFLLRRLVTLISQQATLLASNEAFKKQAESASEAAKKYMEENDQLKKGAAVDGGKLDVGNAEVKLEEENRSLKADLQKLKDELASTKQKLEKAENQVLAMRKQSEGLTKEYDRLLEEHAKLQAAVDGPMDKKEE
# UniProt P54687: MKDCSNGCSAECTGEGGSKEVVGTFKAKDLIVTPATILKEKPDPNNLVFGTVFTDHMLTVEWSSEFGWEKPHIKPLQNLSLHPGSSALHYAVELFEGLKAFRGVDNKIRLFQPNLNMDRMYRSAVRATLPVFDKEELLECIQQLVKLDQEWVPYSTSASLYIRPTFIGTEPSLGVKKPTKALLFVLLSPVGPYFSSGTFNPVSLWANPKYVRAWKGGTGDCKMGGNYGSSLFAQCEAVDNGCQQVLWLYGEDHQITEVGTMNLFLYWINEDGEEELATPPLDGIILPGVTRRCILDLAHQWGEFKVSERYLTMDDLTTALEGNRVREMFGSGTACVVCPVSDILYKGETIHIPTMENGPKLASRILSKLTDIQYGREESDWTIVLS
# UniProt Q92560: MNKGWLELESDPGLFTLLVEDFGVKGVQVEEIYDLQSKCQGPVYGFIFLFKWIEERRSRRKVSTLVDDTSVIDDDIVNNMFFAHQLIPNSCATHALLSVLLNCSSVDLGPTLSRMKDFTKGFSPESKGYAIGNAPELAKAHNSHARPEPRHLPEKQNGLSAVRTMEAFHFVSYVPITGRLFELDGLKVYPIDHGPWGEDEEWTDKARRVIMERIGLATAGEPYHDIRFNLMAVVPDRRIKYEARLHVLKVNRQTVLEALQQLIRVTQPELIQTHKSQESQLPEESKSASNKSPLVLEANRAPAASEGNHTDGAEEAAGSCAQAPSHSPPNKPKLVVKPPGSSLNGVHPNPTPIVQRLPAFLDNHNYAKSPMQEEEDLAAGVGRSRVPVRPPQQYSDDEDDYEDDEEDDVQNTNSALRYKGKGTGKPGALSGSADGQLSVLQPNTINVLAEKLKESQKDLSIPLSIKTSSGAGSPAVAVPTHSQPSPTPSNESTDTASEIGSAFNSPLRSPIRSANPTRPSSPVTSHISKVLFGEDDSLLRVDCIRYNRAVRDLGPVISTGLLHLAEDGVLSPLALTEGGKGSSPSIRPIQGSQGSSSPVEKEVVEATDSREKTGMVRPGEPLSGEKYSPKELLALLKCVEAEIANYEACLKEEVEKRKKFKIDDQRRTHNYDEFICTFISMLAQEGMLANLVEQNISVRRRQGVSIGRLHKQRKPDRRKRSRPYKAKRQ
# UniProt P46736, whole entry, looked up: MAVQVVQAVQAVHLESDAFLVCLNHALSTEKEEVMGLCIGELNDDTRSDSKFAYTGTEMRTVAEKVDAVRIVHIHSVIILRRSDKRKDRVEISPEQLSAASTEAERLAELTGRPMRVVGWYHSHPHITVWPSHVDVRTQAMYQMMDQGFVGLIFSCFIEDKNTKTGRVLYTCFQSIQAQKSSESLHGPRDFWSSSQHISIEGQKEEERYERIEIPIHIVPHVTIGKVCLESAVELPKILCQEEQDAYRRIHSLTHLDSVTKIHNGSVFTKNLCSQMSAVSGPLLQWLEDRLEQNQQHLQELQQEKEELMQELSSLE
# UniProt Q6PJG6: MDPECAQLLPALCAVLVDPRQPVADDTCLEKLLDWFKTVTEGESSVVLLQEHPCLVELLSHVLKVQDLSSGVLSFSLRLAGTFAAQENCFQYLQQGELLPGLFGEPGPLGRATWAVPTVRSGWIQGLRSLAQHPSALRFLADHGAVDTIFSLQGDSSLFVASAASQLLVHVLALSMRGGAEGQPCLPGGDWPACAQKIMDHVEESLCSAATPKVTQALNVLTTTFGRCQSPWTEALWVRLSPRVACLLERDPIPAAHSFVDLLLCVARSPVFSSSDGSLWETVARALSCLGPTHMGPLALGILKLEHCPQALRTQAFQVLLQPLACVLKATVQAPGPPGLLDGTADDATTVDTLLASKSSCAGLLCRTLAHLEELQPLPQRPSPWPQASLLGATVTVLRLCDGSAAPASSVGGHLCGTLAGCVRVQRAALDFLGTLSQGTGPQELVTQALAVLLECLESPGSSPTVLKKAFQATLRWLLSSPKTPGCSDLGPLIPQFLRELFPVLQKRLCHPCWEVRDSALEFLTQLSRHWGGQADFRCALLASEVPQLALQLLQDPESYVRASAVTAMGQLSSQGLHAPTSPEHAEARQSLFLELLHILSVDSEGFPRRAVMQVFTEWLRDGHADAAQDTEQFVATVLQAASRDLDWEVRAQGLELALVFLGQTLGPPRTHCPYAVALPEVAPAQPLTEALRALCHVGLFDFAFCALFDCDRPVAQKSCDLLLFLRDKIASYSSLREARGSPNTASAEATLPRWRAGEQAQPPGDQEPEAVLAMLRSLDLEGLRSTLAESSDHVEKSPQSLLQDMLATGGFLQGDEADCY
# The list shows a part of the results.
# Legend:
# Assay in all cases: log2 fold change, soluble protein after heating vs DMSO (PISA); higher = thermal stabilisation; K562 cells, 10 uM, 30 min; active = over 0.2 and 3.5 SD of the protein, either way, in both replicates (recomputed)
# bafetinib = compound: Cc1ccc(NC(=O)c2ccc(CN3CC[C@H](N(C)C)C3)c(C(F)(F)F)c2)cc1Nc1nccc(-c2cncnc2)n1 [bafetinib]
# In short: (§1)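 K562 cells at 2×10^6 cells/mL were treated for 30 min with 10 μM compound, and aliquots were heated for 3 min over 48°C-58°C before pooling. Extraction used PBS with 0.5% NP-40 at 4°C, and soluble protein was the supernatant after 21,000xg for 90 min, measured by TMTpro 16plex LC-MS/MS with channel sums equalised. Thermal stability values, relative to control samples and from duplicates, are log2 fold changes.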
# [1] = compound: Cc1cccc(CC(=O)N2CCc3c2ccc(-c2cn(C)c4ncnc(N)c24)c3F)n1
# In short: as §1
# nilotinib = compound: Cc1cn(-c2cc(NC(=O)c3ccc(C)c(Nc4nccc(-c5cccnc5)n4)c3)cc(C(F)(F)F)c2)cn1 [nilotinib]
# In short: as §1
# [2] = compound: Cc1nc(Nc2n[nH]c3c2CN(C(=O)N[C@H](CN(C)C)c2ccccc2)C3(C)C)c2sccc2n1
# In short: as §1
# dasatinib = compound: Cc1nc(Nc2ncc(C(=O)Nc3c(C)cccc3Cl)s2)cc(N2CCN(CCO)CC2)n1 [dasatinib]
# In short: as §1
# [3] = compound: Cc1ncc(-c2ccnc(Nc3ccc(S(C)(=O)=O)cc3)n2)n1C(C)C
# In short: as §1
# [4] = compound: Cn1cc(-c2ccc3c(c2)CCN3C(=O)Cc2cccc(C(F)(F)F)c2)c2c(N)ncnc21
# In short: as §1
# [5] = compound: Cn1cc(-c2ccc3nnc(C(F)(F)c4ccc5ncccc5c4)n3n2)cn1
# In short: as §1
# tipifarnib = compound: Cn1cncc1[C@@](N)(c1ccc(Cl)cc1)c1ccc2c(c1)c(-c1cccc(Cl)c1)cc(=O)n2C [tipifarnib]
# In short: as §1
# mubritinib = compound: FC(F)(F)c1ccc(/C=C/c2nc(COc3ccc(CCCCn4ccnn4)cc3)co2)cc1 [mubritinib]
# In short: as §1
# [6] = compound: NC(=O)Nc1cc(-c2cccc(F)c2)sc1C(=O)N[C@H]1CCCNC1
# In short: as §1
# [7] = compound: NC(=O)c1cnc(N[C@@H]2CCCC[C@@H]2N)nc1Nc1cccc(-n2nccn2)c1
# In short: as §1
# [8] = compound: NC1(c2ccc(-c3nc4ccn5c(=O)[nH]nc5c4cc3-c3ccccc3)cc2)CCC1
# In short: as §1
# [9] = compound: NCC(=O)Nc1ccc(-n2nc(C(F)(F)F)cc2-c2ccc3c(ccc4ccccc43)c2)cc1
# In short: as §1
# entinostat = compound: Nc1ccccc1NC(=O)c1ccc(CNC(=O)OCc2cccnc2)cc1 [entinostat]
# In short: as §1
# vorinostat = compound: O=C(CCCCCCC(=O)Nc1ccccc1)NO [vorinostat]
# In short: as §1
# citarinostat = compound: O=C(CCCCCCNC(=O)c1cnc(N(c2ccccc2)c2ccccc2Cl)nc1)NO [citarinostat]
# In short: as §1
# silmitasertib = compound: O=C(O)c1ccc2c(c1)nc(Nc1cccc(Cl)c1)c1ccncc12 [silmitasertib]
# In short: as §1
# [10] = compound: O=C1NC(=O)C(c2cnc3ccccn23)=C1c1cn2c3c(cc(F)cc13)CN(C(=O)N1CCCCC1)CC2
# In short: as §1
# [11] = compound: c1cc(OCCN2CCCCC2)cc(-c2n[nH]c3ccc(-c4nnc[nH]4)cc23)c1
# In short: as §1
Target,log2 fold change (bafetinib),log2 fold change [1],log2 fold change (nilotinib),log2 fold change [2],log2 fold change (dasatinib),log2 fold change [3],log2 fold change [4],log2 fold change [5],log2 fold change (tipifarnib),log2 fold change (mubritinib),log2 fold change [6],log2 fold change [7],log2 fold change [8],log2 fold change [9],log2 fold change (entinostat),log2 fold change (vorinostat),log2 fold change (citarinostat),log2 fold change (silmitasertib),log2 fold change [10],log2 fold change [11]
BET1 (UniProt O15155),inactive: -0.093,inactive: -0.03,inactive: -0.019,inactive: 0.042,inactive: 0.038,inactive: -0.008,inactive: 0.008,inactive: 0.041,inactive: -0.029,inactive: -0.032,inactive: -0.014,inactive: -0.117,inactive: -0.02,inactive: -0.038,inactive: 0.066,inactive: 0.027,inactive: 0.028,inactive: 0,inactive: -0.104,inactive: -0.084
BRIX1 (UniProt Q8TDN6),inactive: 0.386,inactive: -0.033,inactive: 0.085,inactive: -0.077,inactive: 0.109,inactive: -0.013,inactive: -0.494,inactive: -0.138,inactive: 0.158,inactive: -0.206,inactive: 0.056,inactive: -0.025,inactive: 0.171,inactive: 0.132,inactive: -0.008,inactive: 0.059,inactive: -0.05,inactive: 0.191,inactive: 0.401,inactive: -0.437
BCL9L (UniProt Q86UU0),inactive: 0.043,inactive: 0,inactive: -0.046,inactive: -0.064,inactive: 0.018,inactive: 0.053,inactive: -0.013,inactive: -0.031,inactive: 0.014,inactive: 0.026,inactive: 0.037,inactive: -0.009,inactive: 0.03,inactive: 0.021,inactive: -0.002,inactive: 0.012,inactive: 0.017,inactive: -0.038,inactive: -0.045,active: 0.241
BPHL (UniProt Q86WA6),inactive: -0.005,inactive: 0.002,inactive: -0.032,inactive: -0.034,inactive: -0.032,inactive: -0.021,inactive: 0.082,inactive: 0.009,inactive: 0.032,inactive: -0.008,inactive: -0.014,inactive: -0.081,inactive: 0.255,inactive: -0.012,inactive: 0.019,inactive: -0.04,inactive: -0.042,inactive: -0.045,inactive: -0.06,inactive: 0.051
BMS1 (UniProt Q14692),inactive: 0.248,inactive: 0.006,inactive: -0.087,inactive: 0.051,inactive: 0.028,inactive: 0.042,inactive: -0.255,inactive: -0.092,inactive: 0.122,inactive: -0.144,inactive: 0.029,inactive: 0.046,inactive: 0.159,inactive: 0.093,inactive: -0.058,inactive: -0.021,inactive: -0.104,inactive: 0.13,inactive: 0.191,inactive: -0.218
BROX (UniProt Q5VW32),inactive: 0.048,inactive: -0.037,inactive: -0.041,inactive: -0.034,inactive: -0.12,inactive: 0.045,inactive: -0.002,inactive: 0.023,inactive: -0.098,inactive: -0.034,inactive: -0.021,inactive: -0.073,inactive: -0.086,inactive: -0.044,inactive: 0.071,inactive: -0.021,inactive: 0.061,inactive: 0.068,inactive: 0.024,inactive: -0.01
BCAS2 (UniProt O75934),inactive: -0.071,inactive: -0.048,inactive: -0.001,inactive: 0.033,inactive: -0.032,inactive: 0.048,inactive: -0.014,inactive: 0,inactive: 0.076,inactive: 0.011,inactive: 0,inactive: 0.14,inactive: 0.07,inactive: -0.023,inactive: 0.059,inactive: -0.08,inactive: 0.033,inactive: 0.014,inactive: 0.004,inactive: -0.098
BRI3 (UniProt O95415),inactive: -0.162,–,–,–,–,–,–,–,–,–,–,–,–,–,–,–,–,–,–,–
BCAP31 isoform 2 (UniProt P51572),inactive: -0.045,inactive: -0.026,inactive: 0.002,inactive: 0.005,inactive: 0.058,inactive: -0.022,inactive: -0.002,inactive: -0.017,inactive: 0.071,inactive: 0.005,inactive: 0.048,inactive: -0.006,inactive: 0.013,inactive: -0.005,inactive: 0.002,inactive: -0.028,inactive: -0.021,inactive: -0.032,inactive: -0.029,inactive: -0.012
BCAT1 (UniProt P54687),inactive: 0.006,inactive: -0.012,inactive: -0.025,inactive: 0.002,inactive: 0.021,inactive: -0.032,inactive: 0.023,inactive: 0.034,inactive: -0.017,inactive: 0.029,inactive: 0.012,inactive: 0.006,inactive: 0.003,inactive: -0.004,inactive: -0.021,inactive: 0.009,inactive: 0.018,inactive: -0.004,inactive: 0.005,inactive: 0.012
BAP1 (UniProt Q92560),inactive: 0.252,inactive: -0.071,inactive: 0.007,inactive: 0.053,inactive: -0.031,inactive: 0.006,inactive: -0.086,inactive: -0.064,inactive: 0.076,inactive: -0.201,inactive: -0.073,inactive: 0.085,inactive: 0.073,inactive: 0.012,inactive: -0.054,inactive: 0.13,inactive: 0.058,inactive: 0.04,inactive: 0.076,inactive: -0.142
B4GALT3 (UniProt O60512),inactive: -0.069,inactive: 0.024,inactive: 0.045,inactive: 0.151,inactive: -0.04,inactive: 0.103,inactive: -0.023,inactive: 0.091,inactive: 0.091,inactive: -0.05,inactive: -0.089,inactive: -0.05,inactive: -0.013,inactive: -0.042,inactive: -0.034,inactive: 0.067,inactive: -0.116,inactive: -0.051,inactive: 0.044,inactive: -0.025
BRCC3 (UniProt P46736),inactive: 0.013,inactive: -0.055,inactive: 0.013,inactive: 0.014,inactive: 0.066,inactive: -0.009,inactive: 0.002,inactive: 0.009,inactive: 0.026,inactive: 0.013,inactive: 0.03,inactive: -0.028,inactive: -0.013,inactive: 0.003,inactive: -0.057,inactive: -0.036,inactive: -0.004,inactive: -0.014,inactive: 0.037,inactive: -0.058
BCAS1 (UniProt O75363),inactive: -0.059,inactive: -0.018,inactive: 0.013,inactive: 0.013,inactive: 0.041,inactive: 0.005,inactive: 0.077,inactive: -0.119,inactive: 0.006,inactive: -0.182,inactive: -0.014,inactive: 0.049,inactive: 0.015,inactive: 0.037,inactive: 0.015,inactive: -0.001,inactive: 0.014,inactive: 0.056,inactive: 0,inactive: -0.022
BRAT1 (UniProt Q6PJG6),inactive: 0.002,inactive: 0.026,inactive: -0.004,inactive: 0.051,inactive: -0.195,inactive: -0.082,inactive: 0.046,inactive: 0,inactive: -0.018,inactive: 0.023,inactive: -0.017,inactive: 0.014,inactive: -0.065,inactive: -0.006,inactive: 0.013,inactive: 0.062,inactive: 0.042,inactive: 0.004,inactive: -0.05,inactive: -0.048
BCKDHA (UniProt P12694),inactive: -0.029,inactive: -0.074,inactive: 0.172,inactive: -0.064,inactive: -0.116,inactive: -0.023,inactive: -0.058,inactive: -0.05,inactive: -0.003,inactive: 0.014,inactive: 0.009,inactive: -0.035,inactive: -0.062,inactive: -0.042,inactive: 0.003,inactive: -0.011,inactive: 0.017,inactive: 0.066,inactive: 0.009,inactive: -0.066
ATXN2L (UniProt Q8WWM7),inactive: -0.045,inactive: 0.01,inactive: -0.013,inactive: -0.034,inactive: -0.004,inactive: -0.016,inactive: -0.026,inactive: 0.005,inactive: 0.015,inactive: 0.025,inactive: 0.035,inactive: -0.008,inactive: -0.01,inactive: -0.041,inactive: 0.011,inactive: 0.004,inactive: 0.011,inactive: -0.004,inactive: 0.017,inactive: -0.074

# Record cards (already shown). Order of values: log2 fold change (bafetinib)	log2 fold change [1]	log2 fold change (nilotinib)	log2 fold change [2]	log2 fold change (dasatinib)	log2 fold change [3]	log2 fold change [4]	log2 fold change [5]	log2 fold change (tipifarnib)	log2 fold change (mubritinib)	log2 fold change [6]	log2 fold change [7]	log2 fold change [8]	log2 fold change [9]	log2 fold change (entinostat)	log2 fold change (vorinostat)	log2 fold change (citarinostat)	log2 fold change (silmitasertib)	log2 fold change [10]	log2 fold change [11]
# BMS1 (UniProt Q14692) as listed: inactive: 0.248	inactive: 0.006	inactive: -0.087	inactive: 0.051	inactive: 0.028	inactive: 0.042	inactive: -0.255	inactive: -0.092	inactive: 0.122	inactive: -0.144	inactive: 0.029	inactive: 0.046	inactive: 0.159	inactive: 0.093	inactive: -0.058	inactive: -0.021	inactive: -0.104	inactive: 0.13	inactive: 0.191	inactive: -0.218
# BET1 (UniProt O15155) as listed: inactive: -0.093	inactive: -0.03	inactive: -0.019	inactive: 0.042	inactive: 0.038	inactive: -0.008	inactive: 0.008	inactive: 0.041	inactive: -0.029	inactive: -0.032	inactive: -0.014	inactive: -0.117	inactive: -0.02	inactive: -0.038	inactive: 0.066	inactive: 0.027	inactive: 0.028	inactive: 0	inactive: -0.104	inactive: -0.084
